Test results: publication PMC6224593
Results are given in words; binding and its absence hold for the method and conditions named. For some assays here: Binding calls can cover weak binding; strength is not graded here.

Tests used:
[1] = molecular target: paratox (Prx) of Streptococcus pyogenes MGAS315 (Streptococcus pyogenes MGAS315); assay: ITC; control: XIP titrated into dilute paratox alone; VP-ITC, 25 °C; matched DMSO; both purified
[2] = molecular target: ComR of Streptococcus mutans UA159 (Streptococcus mutans UA159); assay: ITC; XIP injected into ComR that was incubated with a 1.5 molar excess of paratox for 10 min; VP-ITC, 25 °C; matched DMSO; both purified

For GLDWWSL [XIP (sigX-inducing peptide) of Streptococcus mutans UA159], the binding [1] was “no binding” and the binding [2] was “binds”.
